Values of other authors as cited in US6509371B1, “Compositions containing Bergamottin for increasing the oral bioavailability of pharmaceutical agents” (Warner-Lambert Company, priority 1997, dated 2003).

Chains of the proteins cited; added tags and fusions are not shown.
UniProt P08684, whole entry: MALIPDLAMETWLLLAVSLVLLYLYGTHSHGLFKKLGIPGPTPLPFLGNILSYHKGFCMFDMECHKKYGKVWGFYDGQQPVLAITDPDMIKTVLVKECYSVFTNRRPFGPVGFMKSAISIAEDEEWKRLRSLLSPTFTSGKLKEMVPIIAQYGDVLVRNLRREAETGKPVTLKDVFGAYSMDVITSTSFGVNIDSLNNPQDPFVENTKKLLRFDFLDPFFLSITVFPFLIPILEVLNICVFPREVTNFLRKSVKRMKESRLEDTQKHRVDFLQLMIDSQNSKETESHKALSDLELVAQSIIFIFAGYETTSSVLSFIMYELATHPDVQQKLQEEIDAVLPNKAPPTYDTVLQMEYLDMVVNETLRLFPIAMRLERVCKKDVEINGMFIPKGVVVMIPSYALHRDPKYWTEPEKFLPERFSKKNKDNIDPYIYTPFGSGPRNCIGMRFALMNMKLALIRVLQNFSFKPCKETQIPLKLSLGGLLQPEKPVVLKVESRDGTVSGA

Key:
P450 3A4 = P450 3A4 (Homo sapiens, UniProt P08684); settings: in vivo; cited from earlier work
[1] = in vivo; cited from earlier work

COC(=O)C1=C(C)NC(C)=C(C(=O)OC)C1c1ccccc1[N+](=O)[O-] [Nifedipine]
Fraction Metabolized (P450 3A4): >90%
Oral Bioavailability [1]: 40-60%
